# From publication PMC7819943, “Rice protein-binding microarrays: a tool to detect cis-acting elements near promoter regions in rice”
# By UniProt entry, the sequences of proteins in these tests, tags left out.
# UniProt Q0JBA9, entry or part of it: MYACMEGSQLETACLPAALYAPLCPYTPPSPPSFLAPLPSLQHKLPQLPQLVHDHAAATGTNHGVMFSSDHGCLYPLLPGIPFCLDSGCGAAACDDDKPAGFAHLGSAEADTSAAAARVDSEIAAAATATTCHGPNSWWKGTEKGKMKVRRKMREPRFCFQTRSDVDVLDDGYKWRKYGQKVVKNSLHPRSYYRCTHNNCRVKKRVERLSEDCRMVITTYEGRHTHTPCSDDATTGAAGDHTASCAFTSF
# The list shows a part of the results.
# Target: OsWRKY34 (Oryza sativa, UniProt Q0JBA9 1-250)
# Test: protein-binding microarray (RPBM); PBS, 2% BSA, 51.3 ng/ul salmon testes DNA, 50 uM zinc acetate, 200 nM TF, 25 C, 1 h; high values mean tight binding
# Settings: protein: recombinant; tags: N-terminal polyhistidine and DsRed monomer fusion (pET32a); label: CyDye5-dUTP incorporated in the synthesized complementary strand; 3' TTTTT single-stranded linker to array surface; dsDNA, one strand shown
# Method in brief: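 Transcription factors were each fused at the N-terminus to a polyhistidine tag plus DsRed and expressed in E. coli BL21-CodonPlus before Ni–NTA purification. Binding to a double-stranded custom Agilent array was carried out with 200 nM protein at 25 °C for 1 h in PBS, 2% BSA, salmon testes DNA and 50 µM zinc acetate. The binding signal is per-feature fluorescence intensity, in arbitrary units, on an Axon 4000B scanner.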
row,Sequence,binding signal
1,GATTCCCTGCTTAGTCTGTTGTTATTTTTCAATAGTTTGACGGAGTCACCTAGTGCAG,10900 fluorescence intensity (a.u.)
2,TCGCCGAACTCCACCAAACCGGTCGCTATTTTCTTCCTTTCGGAGTCACCTAGTGCAG,10900 fluorescence intensity (a.u.)
3,ATTACCGTACGGATCCTCCTGCAGTAGACTGGCGCAATTACGGAGTCACCTAGTGCAG,8540 fluorescence intensity (a.u.)
4,GTGGTAAGGCATCCCACCTAAAATTTTTCATCCTGTCACACGGAGTCACCTAGTGCAG,8410 fluorescence intensity (a.u.)
5,ACCTTTTTCATGATGTTTTAAAGTTTATTTGGGATTAGCACGGAGTCACCTAGTGCAG,9740 fluorescence intensity (a.u.)
6,TGACTTTCGCCTCTCGCGCCTTTTCTACAGCTATAAGCACCGGAGTCACCTAGTGCAG,10600 fluorescence intensity (a.u.)
7,GCATTGAATTCACTATACATCTTGATTACACCTTATGTTACGGAGTCACCTAGTGCAG,12000 fluorescence intensity (a.u.)
8,TTTTTCCTATTCTATCCAATAAATTATCGCGTTGTCTGGTCGGAGTCACCTAGTGCAG,9770 fluorescence intensity (a.u.)
9,CATTCCCTTTGCGCGCAGCCTCGTCGCCTCGCCTCGCCGACGGAGTCACCTAGTGCAG,8640 fluorescence intensity (a.u.)
10,ATTTTTCTCTAATTTCCCTTTCATTCCTTCCATTTTTCCTCGGAGTCACCTAGTGCAG,9330 fluorescence intensity (a.u.)
11,CCACGTCCTCGGTTCCATTCGGACTCCCGTACACCGCCCACGGAGTCACCTAGTGCAG,9160 fluorescence intensity (a.u.)
12,GCCTCCATCCACCTCGCCCATCCCTACACTCTACTACTCCCGGAGTCACCTAGTGCAG,8670 fluorescence intensity (a.u.)
13,CTAGTTGCTCCTAACTTGGCCTACTGTCCTCCATCTCCAACGGAGTCACCTAGTGCAG,9280 fluorescence intensity (a.u.)
14,TGGGTGGGTGGTTGCCACTTGGACACGTAGCCGGCGCCCCCGGAGTCACCTAGTGCAG,12000 fluorescence intensity (a.u.)
15,GTACTACTCCAATCATTCCTCATTTAAATTTTTTTCTCAACGGAGTCACCTAGTGCAG,8090 fluorescence intensity (a.u.)
16,AGCAGAACTCCTAGAAAGTAATGTTCGTTGACTTAAGTTCCGGAGTCACCTAGTGCAG,8450 fluorescence intensity (a.u.)
17,GTTCCACAGTCCACACCCACGCACACAAGCAAGCGGCCTCCGGAGTCACCTAGTGCAG,11000 fluorescence intensity (a.u.)
18,CCCTGCTGCTCCAAGCTTATCCTCTCCTTCTCTCTCCTCTCGGAGTCACCTAGTGCAG,9540 fluorescence intensity (a.u.)
19,TGTTTATGGTGATATCTTCTGTTACGTTATATTTCACTGCCGGAGTCACCTAGTGCAG,12000 fluorescence intensity (a.u.)
20,AACCCGCTTCCCAAATCCGGCGCCCGTACGCCCGCCCGCCCGGAGTCACCTAGTGCAG,8390 fluorescence intensity (a.u.)
21,CTTCTCTTGTATTGTAATACTAATATTGGATTACTGCTTCCGGAGTCACCTAGTGCAG,8270 fluorescence intensity (a.u.)

row,Sequence,binding signal
1,GAGAGCGCAATTTAGTCTGTCCATTTAAATTCCTAGTACACGGAGTCACCTAGTGCAG,9720 fluorescence intensity (a.u.)
2,TGAGCCTGTAACTTTTTCATTCATACGACTATTTTGTGATCGGAGTCACCTAGTGCAG,9910 fluorescence intensity (a.u.)
3,ACATACATTTTTCTTGCAATGACTTTTACTGAATAATTTACGGAGTCACCTAGTGCAG,8170 fluorescence intensity (a.u.)
4,CTATCTCTCGTTGACTCAGATCACTCCAATCATCATGTCCCGGAGTCACCTAGTGCAG,13300 fluorescence intensity (a.u.)
5,GAGTAAGTATGTCATGTGGGCTTCCACAAATTTTTTTTATCGGAGTCACCTAGTGCAG,8550 fluorescence intensity (a.u.)
6,CCACAAGACGGTGGTTTTCGGCAGGGAGAGGGGATTTGCTCGGAGTCACCTAGTGCAG,9220 fluorescence intensity (a.u.)
7,GTCTCCAAGCATCCATTTTCTACACCTTGGACTAATGCACCGGAGTCACCTAGTGCAG,9910 fluorescence intensity (a.u.)
8,GGATGGTGTGGATGTTGGTGGCGCACTCCCGCGTGTACTACGGAGTCACCTAGTGCAG,9360 fluorescence intensity (a.u.)
9,GCATGTCCAGCATCTGTTTGCTTTATGTTCCTCGATTAATCGGAGTCACCTAGTGCAG,9400 fluorescence intensity (a.u.)
10,CTCCTCCGTCCACCGCAGCTGGCTTCACCTTTTCCTCGGTCGGAGTCACCTAGTGCAG,8230 fluorescence intensity (a.u.)
11,GGGTTTGGGTTTTTAGGTTTGGGGAGTTGGGCTGTGTTTACGGAGTCACCTAGTGCAG,22100 fluorescence intensity (a.u.)
12,TTTCACAGGGCATTTCACCGAATATATCATGCTCATCAATCGGAGTCACCTAGTGCAG,9260 fluorescence intensity (a.u.)
13,TCTCTCTCTCTTTCCTTTTCTTTGACCATCTCTTCTCTCTCGGAGTCACCTAGTGCAG,9060 fluorescence intensity (a.u.)
14,CTAAAACTCAACATATAAACATGCCACCTCATCATCTATACGGAGTCACCTAGTGCAG,8110 fluorescence intensity (a.u.)
15,ACTCCATTTACGGGCAACTCTTGCTTGCGCAACGGGCCTTCGGAGTCACCTAGTGCAG,8790 fluorescence intensity (a.u.)
16,TTCTACAGTTCAATCAAACGGTCATTCCTATGTTTTTCCTCGGAGTCACCTAGTGCAG,9450 fluorescence intensity (a.u.)
17,AACTCAATTAGTCTTAATGAATTTGTCGTTTTGCATGCCGCGGAGTCACCTAGTGCAG,9240 fluorescence intensity (a.u.)
18,TTGTTCTTGCTGCATTTCTTCTTCTCGTTTTTTTTTCTTTCGGAGTCACCTAGTGCAG,16900 fluorescence intensity (a.u.)
19,GTGGGCGGGGAGGGCGGATCTGCCACCGTCGAGCCGCGGGCGGAGTCACCTAGTGCAG,10100 fluorescence intensity (a.u.)
20,ACATGGTTGCTCATTGCCACTGGGCTGCTTCAATTCGGTTCGGAGTCACCTAGTGCAG,8380 fluorescence intensity (a.u.)
21,CTCCTCTGGGCGCGCGCTGTGGCGGTGGCGTTCACGTTCTCGGAGTCACCTAGTGCAG,8490 fluorescence intensity (a.u.)

row,Sequence,binding signal
1,GATCCGACTCCTACTTCTAACGTAGATTTTCGGCCTTTATCGGAGTCACCTAGTGCAG,8370 fluorescence intensity (a.u.)
2,TTGCAAATGCAACCCTATTATGCCATCCTTTGTTATCCTGCGGAGTCACCTAGTGCAG,9550 fluorescence intensity (a.u.)
3,GGTCGCCGCCGTGGGTTATGTTTGTCTATCCTGCCGGCTTCGGAGTCACCTAGTGCAG,9640 fluorescence intensity (a.u.)
4,TCTCTCCAAATTGTTATCCATTTCGTCTGTGTTCAGCATCCGGAGTCACCTAGTGCAG,12500 fluorescence intensity (a.u.)
5,GACTTTTTAGCACATGTTTGACCGTTCGTCTTATTCAAAACGGAGTCACCTAGTGCAG,10800 fluorescence intensity (a.u.)
6,GCTTTACTCTTCCTAGGAATATATCTGTGTGTCCAGAAAACGGAGTCACCTAGTGCAG,9610 fluorescence intensity (a.u.)
7,GCTAATTCCTTCTTGCATGTTTTCATGGGCCTGGTTGCCACGGAGTCACCTAGTGCAG,8960 fluorescence intensity (a.u.)
8,AAGCCAACCCAACCCGCACCTTCTCGCTGCTTCTACTACTCGGAGTCACCTAGTGCAG,13100 fluorescence intensity (a.u.)
9,CGTACCTAGTCAAACACGCGTCTATATATCAACCTACCTACGGAGTCACCTAGTGCAG,10800 fluorescence intensity (a.u.)
10,CAAGAACCCTTCTTTATAGATCTGTGCCCTTGCTGTTCATCGGAGTCACCTAGTGCAG,10700 fluorescence intensity (a.u.)
11,TCACTTCCCTAGTTCCCTTGCTGCAGTTGCGTTGCACCAGCGGAGTCACCTAGTGCAG,8410 fluorescence intensity (a.u.)
12,GGCCGGCCCGTCGCTCCACGCCTCGGATCACCACTGTCTTCGGAGTCACCTAGTGCAG,8580 fluorescence intensity (a.u.)
13,GGTGACAGGCAGTCCACATCCTTATCGCTCTTTGCTAGTTCGGAGTCACCTAGTGCAG,8510 fluorescence intensity (a.u.)
14,TTTCTTTATAATACGATGTTGACTGTATCAACTGTTTCTTCGGAGTCACCTAGTGCAG,8890 fluorescence intensity (a.u.)
15,TCCTCGACACAATTCCAAAGTGCACTTCTCCACTTCACTCCGGAGTCACCTAGTGCAG,8070 fluorescence intensity (a.u.)
16,CGACTCCCACACGCCATGCCCATCGCGCCCGCGGCTTGCACGGAGTCACCTAGTGCAG,8240 fluorescence intensity (a.u.)
17,TTGTTCACCTCACCTCAGCTCGTCTCTCTGACTTTGATCTCGGAGTCACCTAGTGCAG,9320 fluorescence intensity (a.u.)
18,ATGGACCGCCACCTCGCGCCGAGCTTCCAGATCCCGCCGGCGGAGTCACCTAGTGCAG,9900 fluorescence intensity (a.u.)
19,CGGTATCATCTCATCTCATCTCAATTTCTCCTGTTGTGTTCGGAGTCACCTAGTGCAG,8290 fluorescence intensity (a.u.)
20,CACTTGAGCCCCATATGTTTTTTTTTTCTAATGCCACGTCCGGAGTCACCTAGTGCAG,8880 fluorescence intensity (a.u.)
21,GCTGTGTTCGATACCCTTGAGTTCCTCGTGTACGCTTTTCCGGAGTCACCTAGTGCAG,9270 fluorescence intensity (a.u.)

row,Sequence,binding signal
1,AAACCCGCGCCTCCTCCGCTCTCGTCCGTCGCTTCGGTTCCGGAGTCACCTAGTGCAG,12800 fluorescence intensity (a.u.)
2,AACGTCCGAAATTATCCCTTTCATATCCGCTCCAACACATCGGAGTCACCTAGTGCAG,9470 fluorescence intensity (a.u.)
3,GTCGTGTACAAACATTTACTGTACCAGCTAGCGCTCCAGTCGGAGTCACCTAGTGCAG,11800 fluorescence intensity (a.u.)
4,ATCCCACTCCCACTTCCATATCGGCGTAACGCTCCTGTAACGGAGTCACCTAGTGCAG,8090 fluorescence intensity (a.u.)
5,CACACATTTGCTATCCTGTCTCCTGTTAATTAGACATTTTCGGAGTCACCTAGTGCAG,8130 fluorescence intensity (a.u.)
6,CCATGGTTGGGGAGGTTGAAACCCGGTCTCTTCCTGGCTGCGGAGTCACCTAGTGCAG,9580 fluorescence intensity (a.u.)
7,TCTCGGGTATTTAGTTCCAAGAGAACATCTCAGTTCTATTCGGAGTCACCTAGTGCAG,10500 fluorescence intensity (a.u.)
8,TGGGGATGGATATGGCGCTCCGGGGATGGAGGTGGTGGTGCGGAGTCACCTAGTGCAG,8620 fluorescence intensity (a.u.)
9,GAAACCACATGAATTCCGCCTCTATCATAACCGCCCAATGCGGAGTCACCTAGTGCAG,8920 fluorescence intensity (a.u.)
10,GCTTGCTTAAGTCAATGTACATCCTTCCATTTTGATGAAGCGGAGTCACCTAGTGCAG,8310 fluorescence intensity (a.u.)
11,TCTTTGTGGTCCTTGGTCGTGATTCTTCTTATTGCTTTTTCGGAGTCACCTAGTGCAG,14800 fluorescence intensity (a.u.)
12,AGTTTTTGTGCGCATATGCTTTTCTCTTCTCTCTCTCTCTCGGAGTCACCTAGTGCAG,10800 fluorescence intensity (a.u.)
13,CGCTGATTGGGTTGGGTCGGGTTAGCTTTGGTTTCAATGCCGGAGTCACCTAGTGCAG,11200 fluorescence intensity (a.u.)
14,ACTTCTTTCTCTCTACTCTTCTACTAGTACACTACGCAACCGGAGTCACCTAGTGCAG,9020 fluorescence intensity (a.u.)
15,GTCTGCTACTCCTACTACTCTGCTTTGCCACTACTTGGTTCGGAGTCACCTAGTGCAG,9900 fluorescence intensity (a.u.)
16,ATTAACTCTCGTTTTTTGCTTAGTTGGTGTCGCTGTCAAACGGAGTCACCTAGTGCAG,9250 fluorescence intensity (a.u.)
17,GCGTATAATATACTAGCGCTTGTTAATATATTTTATTATACGGAGTCACCTAGTGCAG,8220 fluorescence intensity (a.u.)
18,CATGTTACATGCTCTCTCTTGCGCTCCATATCCTCGCTCCCGGAGTCACCTAGTGCAG,9100 fluorescence intensity (a.u.)
19,GACTACGATCTCGTCGGTATCGCCTGTTTCGGTTACTCTCCGGAGTCACCTAGTGCAG,8550 fluorescence intensity (a.u.)
20,AACTCTATTATTGCAAGTCTTATACGTGTTGGAGTATTCACGGAGTCACCTAGTGCAG,8360 fluorescence intensity (a.u.)
21,CAGCTACATCGAGTACGTCTACTTCTACTTCAAGTCGCAACGGAGTCACCTAGTGCAG,9270 fluorescence intensity (a.u.)
